Data: US7335500B2, “Production of fucosylated carbohydrates by enzymatic fucosylation synthesis of sugar nucleotides; and in situ regeneration of GDP-fucose” (The Scripps Research Institute, priority 1991, dated 2008)
The structures given here were assigned with low confidence; some may be wrong.

Protein sequences, listed by entry. Tags and fused reporters are not part of them. Residues count along the entry.
UniProt Q2KIM0, 23-468 limits assumed: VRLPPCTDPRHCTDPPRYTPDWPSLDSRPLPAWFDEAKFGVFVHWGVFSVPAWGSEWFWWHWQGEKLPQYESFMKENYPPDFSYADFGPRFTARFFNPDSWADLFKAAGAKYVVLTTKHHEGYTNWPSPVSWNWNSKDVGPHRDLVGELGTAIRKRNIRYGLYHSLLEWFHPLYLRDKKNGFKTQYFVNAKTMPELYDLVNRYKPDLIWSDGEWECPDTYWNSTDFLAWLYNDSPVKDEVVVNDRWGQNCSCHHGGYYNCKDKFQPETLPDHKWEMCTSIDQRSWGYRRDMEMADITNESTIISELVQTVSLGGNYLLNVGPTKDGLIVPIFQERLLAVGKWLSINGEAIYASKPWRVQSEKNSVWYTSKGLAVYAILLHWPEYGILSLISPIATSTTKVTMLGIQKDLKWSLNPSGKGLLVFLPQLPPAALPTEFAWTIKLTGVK

Target: α-fucosidase (Bos taurus, UniProt Q2KIM0)
Test: Inhibition of α-fucosidase by aza sugars
Format: biochemical

## C[C@@H]1N[C@H](CO)[C@@H](O)[C@@H]1O
  Ki: 8 µM
